According to patent US7943356B2, “Alcohol dehydrogenase for the stereoselective production of hydroxy compounds” (Codexis, Inc., priority 2004, dated 2011):

Key:
[1] = Reduction of 2,4-pentanedione, substrate and product contents after 48 hrs; type: biochemical; conditions: 30° C., 50 mM Tris/HCl pH 7.0, NADP
[2] = Conversion of 2-pentanone with substrate-coupled cofactor regeneration (isopropanol); type: biochemical; conditions: 200 mM 2-pentanone, 3 U/ml ADH T, 0.05 mM NADP
Text: In fact, it can be shown that the enantioselectivity in the reduction of critical ketones such as 2-pentanone or 2-butanone by substrate-coupled cofactor regeneration with isopropanol is also far better than with the use of enzyme-coupled cofactor regeneration.
Also, the achievable enantiomeric purity of the product depends on the quantity of isopropanol used (Table 9).

[3] = enzyme-coupled, glucose dehydrogenase, 10 U/ml enzyme
[4] = substrate-coupled, isopropanol (10%), 5 U/ml enzyme

B1: ADH T: thermally stable, (S)-selective NADP-dependent alcohol dehydrogenase from Thermoanaerobacter species (SEQ ID NO: 2), recombinant (protein)
chain: MKGFAMLSIGKVGWIEVEKPNPGPFDAIVRPLAVAPCSSDIHTVFEGGLGELHNAVLGHEAVGEVVEVGSEVKDFKPGDKVVIPAITPDWRTLDVQRGYHQQSGGMLAGYKFTAQKPGVFAEYIYVNDADMNLAHLPDGISLEAAVMITDMMTTGFHGAELAEIELGATVAVLGIGPVGLMAVAGAKLRGAGRIIAVGSRPVCVDAAKYYGATDIVNYKNGPIDSQIMDLTKGKGVDAAIIAGGNVDIMATAVKIVKPGGTIANVNYFGEGDVLPVPRLEWGCGMAHKAIKGGLCPGGRLRMERLIDLVFYKRVDPSKLVTHVFQGFDNIEKALMLMKDKPKDLIKPVVILA
modifications: Thermoanaerobacter species
For B1, the “(S)-4-hydroxy-2-pentanone content” value [1, 3] was 14.6%, the “(S,S)-2,4-pentanediol content” value [1, 3] was 85.4% and the “(S)-4-hydroxy-2-pentanone content” value [1, 4] was 82.6%. The “(S,S)-2,4-pentanediol content” value [1, 4] was 17.4%, the ee ([2]; 100 mM Tris-Cl pH 7.0, 20% isopropanol, 24 hours) was 98.9% and the ee ([2]; 100 mM Tris-Cl pH 7.0, 20% isopropanol, 48 hours) was 98.3%. It also gave an ee ([2]; 100 mM Tris-Cl pH 7.0, 50% isopropanol, 24 hours) of 99.9% and an ee ([2]; 100 mM Tris-Cl pH 7.0, 50% isopropanol, 48 hours) of 99.9%.
